# Laboratory results reported in patent publication US20190111149A1, “ANTI-EGFR ANTIBODY DRUG CONJUGATE” (priority 2016, published 2019).
# Some entries repeat one wording, which the source may state once for all of them.
# Tested on: Cetuximab I83E
# Test: UV photo-conjugation of meditope peptides to cetuximab I83E, hydrophobic interaction chromatography
# Conditions: HIC, FIG. 1
row,Substance,covalent bonding to cetuximab after UV irradiation
1,Peptide 13: MMAD conjugated photoactivatable long cQFD benzolyl-Phe 10,did not efficiently covalent bond
2,Peptide 11: MMAD conjugated photoactivatable long cQFD azido-Phe 10,did not efficiently covalent bond
